From PMC4281712, “ATPase-dependent auto-phosphorylation of the open condensin hinge diminishes DNA binding” (Open Biology, 2014)
Residue numbers refer to the chain shown, from its start. Numbers in names are those of the source. No constants are given. Whether binding was seen depends on the method and setting. Some entries that bind do so weakly or less than the wild type. For some of these results: Where a sequence is shown, tags or fusion partners need not be part of it. Blank lines part the entries; values can stand above or below the binder they belong to.

Columns and labels:
[1] = target: T1, Cnd2 tagged with HA and six-histidine (S. pombe) (UniProt Q9Y7R3); test: co-purification by affinity chromatography; heteropentameric holocondensin: cut3+, cut14+, cnd1+, cnd2+ and cnd3+ overproduced together in S. pombe; affinity purification through HA- and His6-tagged Cnd2 (methods; the results say tagged Cut14); Cut3 and Cut14 bands seen by SDS-PAGE, autoradiography and CBB stain
T1 sequence: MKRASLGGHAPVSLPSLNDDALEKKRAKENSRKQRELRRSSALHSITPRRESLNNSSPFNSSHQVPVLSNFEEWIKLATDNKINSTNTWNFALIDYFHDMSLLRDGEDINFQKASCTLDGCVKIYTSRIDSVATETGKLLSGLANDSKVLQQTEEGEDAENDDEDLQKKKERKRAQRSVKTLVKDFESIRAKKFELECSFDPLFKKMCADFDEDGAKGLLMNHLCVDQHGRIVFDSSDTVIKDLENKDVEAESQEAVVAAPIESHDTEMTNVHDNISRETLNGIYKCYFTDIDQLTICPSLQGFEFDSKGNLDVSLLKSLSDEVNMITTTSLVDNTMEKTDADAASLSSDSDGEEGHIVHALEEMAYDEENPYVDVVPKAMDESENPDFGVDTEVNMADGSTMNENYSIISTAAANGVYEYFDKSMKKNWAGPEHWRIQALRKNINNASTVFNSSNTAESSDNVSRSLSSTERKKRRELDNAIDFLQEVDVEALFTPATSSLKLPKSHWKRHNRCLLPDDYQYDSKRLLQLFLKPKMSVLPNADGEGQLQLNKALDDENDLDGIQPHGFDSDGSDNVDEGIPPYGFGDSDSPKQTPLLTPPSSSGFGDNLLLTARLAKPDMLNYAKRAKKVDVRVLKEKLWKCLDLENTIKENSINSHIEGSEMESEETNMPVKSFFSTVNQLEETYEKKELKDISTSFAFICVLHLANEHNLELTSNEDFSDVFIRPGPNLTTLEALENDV

[2] = target: T2, Cut14/SMC2 tagged with 3HA-His6 (wild type) (S. pombe) (UniProt P41003); test: co-purification by Ni affinity chromatography; Cut3 (wild type, mutant or truncated) and His6-tagged Cut14 overproduced together in S. pombe; complex isolated on Ni-beads through the polyhistidine tag; bands seen by SDS-PAGE with CBB or Ponceau S stain
T2 sequence: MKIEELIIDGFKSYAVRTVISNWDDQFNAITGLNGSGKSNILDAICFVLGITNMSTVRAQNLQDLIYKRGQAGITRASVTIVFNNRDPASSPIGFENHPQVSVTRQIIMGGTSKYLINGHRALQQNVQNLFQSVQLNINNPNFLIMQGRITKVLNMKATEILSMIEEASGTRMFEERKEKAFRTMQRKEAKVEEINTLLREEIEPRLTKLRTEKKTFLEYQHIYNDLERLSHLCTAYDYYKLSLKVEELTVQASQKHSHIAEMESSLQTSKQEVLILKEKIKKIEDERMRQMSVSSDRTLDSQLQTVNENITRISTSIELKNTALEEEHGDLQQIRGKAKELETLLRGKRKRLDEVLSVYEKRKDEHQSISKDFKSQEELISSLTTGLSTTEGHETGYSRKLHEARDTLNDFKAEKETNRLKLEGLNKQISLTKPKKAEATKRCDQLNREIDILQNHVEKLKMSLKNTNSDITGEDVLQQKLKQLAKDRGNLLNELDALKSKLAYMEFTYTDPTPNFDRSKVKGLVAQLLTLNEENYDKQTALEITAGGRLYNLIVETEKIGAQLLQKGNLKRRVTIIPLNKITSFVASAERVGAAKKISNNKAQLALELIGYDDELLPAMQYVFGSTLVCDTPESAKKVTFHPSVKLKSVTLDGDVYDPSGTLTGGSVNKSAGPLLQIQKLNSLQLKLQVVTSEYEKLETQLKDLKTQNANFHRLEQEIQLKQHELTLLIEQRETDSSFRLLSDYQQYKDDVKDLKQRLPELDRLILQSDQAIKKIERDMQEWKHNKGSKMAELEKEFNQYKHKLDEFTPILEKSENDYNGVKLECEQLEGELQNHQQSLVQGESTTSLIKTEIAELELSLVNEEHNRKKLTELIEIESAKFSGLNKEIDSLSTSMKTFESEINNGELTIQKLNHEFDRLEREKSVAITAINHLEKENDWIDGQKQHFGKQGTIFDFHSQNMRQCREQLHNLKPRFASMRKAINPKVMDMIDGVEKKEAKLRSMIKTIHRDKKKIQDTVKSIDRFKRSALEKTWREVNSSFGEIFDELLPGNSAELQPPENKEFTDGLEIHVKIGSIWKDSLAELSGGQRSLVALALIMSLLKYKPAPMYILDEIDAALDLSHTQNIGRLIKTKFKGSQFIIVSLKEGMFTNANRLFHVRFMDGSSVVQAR

[3] = target: T3, Cut14 K38T (S. pombe) (UniProt P41003); test: as above
T3 sequence: T2 sequence with K38T

binding [1]: binds
B1: Cut14/SMC2 in holocondensin (protein, UniProt P41003 1-1172)
chain: T2 sequence

binding [1]: binds
binding [2]: binds
B2: Cut3/SMC4 (wild type) (protein, UniProt P41004 1-1324)
chain: MSDKGIFRTSSTPSIVDVTPDRGERPRKLVRSVLESPSQKDVASIVKIEQTPSRPFFNDFLKKRITDSLNERPNLLNKFMSAQDGTPSKSTGFNERSSQLVSEFTTTEDIENCEETTQVLPPRLVVYELRLTNFKSYAGTQIVGPFHPSFSSIVGPNGSGKSNVIDALLFVFGFRASKLRQSKASALIHKSATHPSLDSCDVEITFKEVNSDFTYVDGSELTVRRTAYKNNTSKYFVNGVESSFSAVSNLLKEKGIDLNHKRFLILQGEVESIAQMKPRAISEGDDGLLEYLEDIIGTSKYKPIIEENMQELSNSDDICAEKESRLKLVLSEKAKLEDSKNSVLSFLKDENELFMKQNQLYRTILYETRNKKTLVQNLLNSLEGKLQAHLEKFEQTERDISEKNEEVKSLREKAAKVKNDCTSEKKTRQSYEQQTVKIEEQLKFLLNKEKKLKKSIEALSFEKSEAENSLSSHDIDSQKLNSEIADLSLRLQQEELSLDDIRKSLQGKTEGISNAIEEKQKAMAPALEKINQLTSEKQILQVELDMLLNKENDLINDVESSQSSLDKLRNDAEENRNILSSKLKVLSDLKGEKKDVSKNIERKKETVHNTYRNLMSNRTKLEEMKASLSSSRSRGNVLESLQRLHESDNLNGFFGRLGDLATIDEAYDVAISTACPALNHIVVDNIETGQKCVAFLRSNNLGRASFIILKELAQKNLARIQTPENVPRLFDLLRFNDQKFAPAFYNVLQNTLVAKNLEQANRIAYGKTRWRVVTLSGQLIDKSGTMTGGGTRVKKGGMSSAITSDVSPASVETCDKQVQLEDTRYRQHLSELESLNQRFTEISERIPSAELEISKLQLDVSACDRLVAGEERRILQLKSDLKSIRNNNERKRNLQNKISNMDKEVEAININNEGLVTEIKTLQDKIMEIGGIRYRIQKSKVDDLHEQLKFVKDKLNKMSFKKKKNEQRSQSFQVELSNLTSEYDTTTESIATLKTELQSLNKYVDEHKSRLREFENALWDINSSIDELVKFIEFESKQMNSVKAERIELENQIQEQRTALSEVGNNENKYLKLMSNLKLHNLTEFCDQTTMDSTFPEYSEDELSSVDKSELVSNISVLKKKTEDREVDINVLSEYRRCNKEAEKRDSDYQSELQKRTDLKKVVTDLQSQRLDEFMYGFGIISMKLKEMYQIITMGGNAELELVDSLDPFSEGVLFSVMPPKKSWKNISNLSGGEKTLSSLALVFALHNYKPTPLYVMDEIDAALDFKNVSIVANYIKERTKNAQFIVISLRSNMFELSSRLVGIYKTANMTKSVTINNKEILTD

binding [3]: binds
B3: Cut3 K161I (protein, UniProt P41004 1-1324)
chain: B2 chain with K161I
